Source: US20040223972A1 (FUNCTIONAL GENETICS, published 2004)
These are yes or no findings as the source states them, for the method shown. In cells and extracts the contact can be indirect. Some entries that bind do so weakly or less than the wild type.

Tests used:
[1] = molecular target: Myc tagged TSG101 truncated at position 250 (Homo sapiens (Human)) (UniProt Q99816); assay: co-immunoprecipitation with anti-Myc antibody from transfected 293T cells
[2] = molecular target: Myc tagged TSG101 truncated at position 300 (Homo sapiens (Human)) (UniProt Q99816); assay: as above

Question: How did the binding [1] turn out when “Ebola VP40 (1-326) (from UniProt Q05128 1-326)” was run?
Answer: binds

Question: And the binding [2]?
Answer: binds
